Assay type in all cases: cell-based
The subject of one assay is parental Ba/F3 cells. Description: CCK-8 viability assay, parental Ba/F3 cells. As to conditions: Mus musculus, BaF3, mean ± SD. As for the experimental part: (§1) Cell viability was assessed using the Cell Counting Kit-8 (CCK-8) assay. Cells were seeded in 96-well plates at a density of 10,000 cells per well in RPMI 1640 medium. Test compounds were prepared by serially diluting stock solutions 3-fold in DMSO to generate an eight-point concentration gradient (100 μM to 0.045 μM), followed by addition to the cultured cells. After 72 h of incubation, 10 μL of CCK-8 reagent was added to each well, and the plates were further incubated for 2–4 h. Absorbance was measured at 450 nm using a microplate reader. Dose-response curves were generated and analyzed using GraphPad Prism 8 (version 8.4.3.686).
(Formazan colour is commonly taken as a measure of viable cells.)

In a further assay the test system is MV411. Description: CCK-8 viability assay, MV411 cells. As to conditions: Homo sapiens, MV4-11; Table 3; mean ± SD. As for the experimental part:
as §1

The test system of another assay is HL60. Description: CCK-8 viability assay, HL60 cells. The note with it: Homo sapiens, HL-60; Table 3; mean ± SD. As for the experimental part: as §1

Broadly, the GI50 is the concentration giving 50% growth inhibition. The IC50 is the concentration that gives 50% inhibition.

With `Cc1ccc(NC(=O)c2ccc(CN3CCN(C)CC3)cc2)cc1Nc1nccc(-c2cccnc2)n1` [Imatinib, imatinib, reference compound], in the assay with parental Ba/F3 cells (CCK8 kit), the GI50 is 38.8 ± 4.5 µM. The IC50 in the assay with parental Ba/F3 cells (Table 3) amounted to 38.8 ± 4.5 µM; with MV411, 65.7 ± 6.5 µM; in the assay on HL60, 29.1 ± 3.3 µM.

(Values after publication PMC11901765, “Discovery of N-(2-Acetamidobenzo[d]thiazol-6-yl)-2-phenoxyacetamide Derivatives as Novel Potential BCR-ABL1 Inhibitors Through Structure-Based Virtual Screening” (Molecules, 2025).)
